From patent US9931315B2, “Method of selectively inhibiting Ras-mediated tumor growth in humans” (ADT PHARMACEUTICALS, INC., priority 2014, dated 2018)
For at least one compound, name, drawing or mass did not settle the structure.

System: panel of colorectal cancer cell lines
Assay: Growth inhibition of known Ras pathway inhibitors across the colorectal cell line panel, pattern versus Ras activation
Format: cell-based, human
Details: HCT-116, DLD-1, SW-480, Caco-2, HT-29, COLO-205 panel
Method: This example illustrates non-selective growth inhibition with known Ras pathway inhibitors which are not compounds of the present invention. In particular, the growth inhibitory activity of commercially available compounds which are active in the Ras signal transduction pathway were tested in the same panel of cell lines using the CellTiter-Glo assay. Cells were seeded in 384-well plates and allowed to attach. Ten-fold serial dilutions of compounds were tested. Each compound concentration was tested in at least 3 separate samples per cell line.

## Cn1cnc2c(F)c(Nc3ccc(Br)cc3Cl)c(C(=O)NOCCO)cc21 [Selumetinib]
  selectivity with regard to Ras activation: “reverse” selectivity toward inactive Ras
